No constants are given. Whether binding was seen depends on the method and setting.
Target: HAstV1 VP34 (residues V74 to G429) (human astrovirus 1 (HAstV1)) (UniProt O12792)
Experiment: BLI

The chains behind the UniProt entries cited, without tags or fusion partners. Residues count along the entry.
UniProt O12792, residues 74-429: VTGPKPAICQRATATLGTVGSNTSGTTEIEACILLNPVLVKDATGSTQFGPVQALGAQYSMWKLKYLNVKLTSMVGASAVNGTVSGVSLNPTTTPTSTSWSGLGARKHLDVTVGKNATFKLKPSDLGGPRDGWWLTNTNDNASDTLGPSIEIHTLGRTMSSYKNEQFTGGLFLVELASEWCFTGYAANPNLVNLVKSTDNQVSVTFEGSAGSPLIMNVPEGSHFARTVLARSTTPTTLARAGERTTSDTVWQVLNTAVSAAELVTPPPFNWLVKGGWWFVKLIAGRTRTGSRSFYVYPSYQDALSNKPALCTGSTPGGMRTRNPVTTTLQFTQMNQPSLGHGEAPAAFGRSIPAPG
UniProt P27487, residues 39-766: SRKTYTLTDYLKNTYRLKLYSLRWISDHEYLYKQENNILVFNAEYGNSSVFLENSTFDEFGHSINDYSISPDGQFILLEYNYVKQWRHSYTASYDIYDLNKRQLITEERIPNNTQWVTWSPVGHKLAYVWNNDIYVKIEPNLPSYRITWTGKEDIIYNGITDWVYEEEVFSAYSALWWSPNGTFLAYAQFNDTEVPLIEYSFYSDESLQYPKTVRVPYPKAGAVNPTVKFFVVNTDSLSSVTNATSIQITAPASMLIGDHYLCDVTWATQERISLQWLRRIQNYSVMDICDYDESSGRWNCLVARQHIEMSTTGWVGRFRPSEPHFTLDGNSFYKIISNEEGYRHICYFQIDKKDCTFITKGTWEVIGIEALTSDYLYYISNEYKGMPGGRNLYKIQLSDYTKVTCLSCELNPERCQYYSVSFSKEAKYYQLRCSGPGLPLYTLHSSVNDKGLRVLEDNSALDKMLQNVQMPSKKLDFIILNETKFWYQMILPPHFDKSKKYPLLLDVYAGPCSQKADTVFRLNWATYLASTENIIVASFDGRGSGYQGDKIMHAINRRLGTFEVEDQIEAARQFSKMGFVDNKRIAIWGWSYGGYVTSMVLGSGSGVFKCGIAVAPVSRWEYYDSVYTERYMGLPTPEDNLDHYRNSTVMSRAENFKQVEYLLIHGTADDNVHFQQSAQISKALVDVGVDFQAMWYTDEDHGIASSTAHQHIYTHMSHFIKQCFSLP

**Q.** “soluble extracellular domain of human DPP4 (residues S39-P766) (from UniProt P27487 39-766) (domain or fragment)” was tested. Which binding did it give?
**A.** no binding (tested: 1 uM)
